Only a part is listed here, and it is no random draw. The data scatter; read single values as rough.
Compound: COC(=O)/C=C/c1ccccc1 [methyl cinnamate]
Experiment: log2 ratio of iodoacetamide-alkyne labeling of the cysteine site, DMSO over compound (competition); higher = stronger covalent engagement of the cysteine by the compound, active = 1 or more
Conditions: 500 µM; treatment time 1 h; system: HEK293T cell lysate
In short: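 Electrophile (500 µM) or vehicle was added to HEK293T lysate (2 mg/mL) for 1 h at ambient temperature before iodoacetamide alkyne labelling (1 h) and click coupling to sCIP-TMT reagents. After pooling, overnight trypsin digestion at 37 °C, streptavidin enrichment and acid elution, peptides were measured by Orbitrap Eclipse LC-MS/MS with FAIMS and quantified in FragPipe. Each cysteine's log2 competition ratio compares mean control-channel with mean compound-channel reporter intensity, control over compound. Data came from duplicate channels across three replicates, excluding cysteines quantified in only one replicate.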

Sequences of proteins named here, by UniProt entry; tags and fusion partners are left off. A change or cut given only in a name is not applied to a line headed by its entry.
UniProt P05455: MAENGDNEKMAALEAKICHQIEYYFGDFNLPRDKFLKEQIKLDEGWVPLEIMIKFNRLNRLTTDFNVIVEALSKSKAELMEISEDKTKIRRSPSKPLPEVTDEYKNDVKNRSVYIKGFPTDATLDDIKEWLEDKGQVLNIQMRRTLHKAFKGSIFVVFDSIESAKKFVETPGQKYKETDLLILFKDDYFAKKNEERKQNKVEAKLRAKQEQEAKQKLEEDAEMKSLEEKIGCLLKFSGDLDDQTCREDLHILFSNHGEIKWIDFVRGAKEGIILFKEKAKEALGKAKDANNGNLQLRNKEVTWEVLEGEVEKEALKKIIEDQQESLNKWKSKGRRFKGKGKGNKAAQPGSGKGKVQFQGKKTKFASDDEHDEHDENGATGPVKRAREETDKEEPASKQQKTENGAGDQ
UniProt P05141: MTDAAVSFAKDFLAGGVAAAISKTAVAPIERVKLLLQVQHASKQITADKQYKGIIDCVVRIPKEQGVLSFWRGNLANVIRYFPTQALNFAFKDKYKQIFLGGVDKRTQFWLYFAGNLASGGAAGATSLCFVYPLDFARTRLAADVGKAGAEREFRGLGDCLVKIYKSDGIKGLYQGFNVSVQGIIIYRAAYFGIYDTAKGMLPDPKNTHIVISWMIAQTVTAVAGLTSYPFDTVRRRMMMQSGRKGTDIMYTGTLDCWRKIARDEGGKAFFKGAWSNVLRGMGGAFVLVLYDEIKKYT
UniProt O95218: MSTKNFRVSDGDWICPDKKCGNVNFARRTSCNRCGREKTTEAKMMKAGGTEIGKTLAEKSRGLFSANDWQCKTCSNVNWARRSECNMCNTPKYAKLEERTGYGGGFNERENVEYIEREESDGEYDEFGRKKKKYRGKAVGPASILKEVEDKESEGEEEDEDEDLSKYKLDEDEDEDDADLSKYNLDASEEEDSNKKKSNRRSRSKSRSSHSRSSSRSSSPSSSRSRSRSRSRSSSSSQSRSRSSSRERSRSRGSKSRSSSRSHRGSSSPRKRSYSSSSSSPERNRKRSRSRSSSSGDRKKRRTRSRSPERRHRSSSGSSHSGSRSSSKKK
UniProt P07737, whole entry, looked up: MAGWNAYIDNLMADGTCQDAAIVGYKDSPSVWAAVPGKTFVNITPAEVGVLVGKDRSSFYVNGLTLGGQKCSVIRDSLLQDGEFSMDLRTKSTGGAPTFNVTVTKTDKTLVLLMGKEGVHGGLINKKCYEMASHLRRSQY
UniProt O95400: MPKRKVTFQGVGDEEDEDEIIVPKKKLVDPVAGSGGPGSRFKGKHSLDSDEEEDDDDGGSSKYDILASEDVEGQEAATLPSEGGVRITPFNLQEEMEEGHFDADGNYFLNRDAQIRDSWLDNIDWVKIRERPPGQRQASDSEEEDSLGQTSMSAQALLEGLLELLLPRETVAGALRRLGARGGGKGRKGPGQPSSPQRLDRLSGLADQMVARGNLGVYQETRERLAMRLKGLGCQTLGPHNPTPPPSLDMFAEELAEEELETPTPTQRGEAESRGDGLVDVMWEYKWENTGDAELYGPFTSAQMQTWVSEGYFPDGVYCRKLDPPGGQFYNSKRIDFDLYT
UniProt P00492: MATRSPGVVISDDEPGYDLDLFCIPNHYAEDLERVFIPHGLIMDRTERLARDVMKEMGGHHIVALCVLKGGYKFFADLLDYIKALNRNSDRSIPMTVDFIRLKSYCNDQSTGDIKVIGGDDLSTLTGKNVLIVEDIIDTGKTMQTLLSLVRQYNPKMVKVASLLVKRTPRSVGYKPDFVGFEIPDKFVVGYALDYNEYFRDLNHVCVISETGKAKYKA
UniProt P04183: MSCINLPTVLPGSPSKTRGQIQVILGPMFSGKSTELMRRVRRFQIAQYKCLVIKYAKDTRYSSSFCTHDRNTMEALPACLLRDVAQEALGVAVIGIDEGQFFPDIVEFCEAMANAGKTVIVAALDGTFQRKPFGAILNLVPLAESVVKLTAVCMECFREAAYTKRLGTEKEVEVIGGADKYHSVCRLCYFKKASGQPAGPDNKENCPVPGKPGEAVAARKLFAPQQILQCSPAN
UniProt P05165: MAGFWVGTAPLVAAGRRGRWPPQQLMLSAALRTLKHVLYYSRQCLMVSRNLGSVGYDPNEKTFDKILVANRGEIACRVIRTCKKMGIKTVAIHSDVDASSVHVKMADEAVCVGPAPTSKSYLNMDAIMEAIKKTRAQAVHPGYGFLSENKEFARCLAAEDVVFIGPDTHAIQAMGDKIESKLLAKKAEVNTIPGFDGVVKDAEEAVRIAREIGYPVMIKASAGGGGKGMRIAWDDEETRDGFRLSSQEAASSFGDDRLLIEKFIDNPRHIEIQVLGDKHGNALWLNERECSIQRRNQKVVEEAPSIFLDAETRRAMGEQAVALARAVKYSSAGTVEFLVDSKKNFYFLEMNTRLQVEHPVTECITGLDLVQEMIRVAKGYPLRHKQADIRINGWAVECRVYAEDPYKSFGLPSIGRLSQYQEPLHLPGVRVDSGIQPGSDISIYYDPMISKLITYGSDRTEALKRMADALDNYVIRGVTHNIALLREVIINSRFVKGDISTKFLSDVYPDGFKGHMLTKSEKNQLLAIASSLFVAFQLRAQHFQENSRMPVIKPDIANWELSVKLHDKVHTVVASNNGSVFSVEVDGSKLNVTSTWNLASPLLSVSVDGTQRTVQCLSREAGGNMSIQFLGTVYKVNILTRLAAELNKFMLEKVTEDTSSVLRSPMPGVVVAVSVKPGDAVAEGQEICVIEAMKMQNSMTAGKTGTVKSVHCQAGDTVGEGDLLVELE
UniProt P00367: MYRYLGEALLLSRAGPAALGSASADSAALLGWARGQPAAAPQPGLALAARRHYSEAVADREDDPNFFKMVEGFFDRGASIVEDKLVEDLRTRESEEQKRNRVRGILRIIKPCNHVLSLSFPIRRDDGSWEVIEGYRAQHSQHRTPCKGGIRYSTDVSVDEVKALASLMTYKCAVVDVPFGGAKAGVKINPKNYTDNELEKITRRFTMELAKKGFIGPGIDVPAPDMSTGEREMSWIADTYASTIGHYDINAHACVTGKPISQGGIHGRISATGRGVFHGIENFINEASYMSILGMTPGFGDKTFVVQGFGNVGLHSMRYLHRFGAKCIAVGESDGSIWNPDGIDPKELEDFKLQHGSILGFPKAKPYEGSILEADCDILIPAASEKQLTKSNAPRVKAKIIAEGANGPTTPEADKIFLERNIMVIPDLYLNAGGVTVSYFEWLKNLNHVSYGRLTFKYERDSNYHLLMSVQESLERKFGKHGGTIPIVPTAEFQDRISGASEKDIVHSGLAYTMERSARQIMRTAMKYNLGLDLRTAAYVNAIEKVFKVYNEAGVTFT
UniProt O96006: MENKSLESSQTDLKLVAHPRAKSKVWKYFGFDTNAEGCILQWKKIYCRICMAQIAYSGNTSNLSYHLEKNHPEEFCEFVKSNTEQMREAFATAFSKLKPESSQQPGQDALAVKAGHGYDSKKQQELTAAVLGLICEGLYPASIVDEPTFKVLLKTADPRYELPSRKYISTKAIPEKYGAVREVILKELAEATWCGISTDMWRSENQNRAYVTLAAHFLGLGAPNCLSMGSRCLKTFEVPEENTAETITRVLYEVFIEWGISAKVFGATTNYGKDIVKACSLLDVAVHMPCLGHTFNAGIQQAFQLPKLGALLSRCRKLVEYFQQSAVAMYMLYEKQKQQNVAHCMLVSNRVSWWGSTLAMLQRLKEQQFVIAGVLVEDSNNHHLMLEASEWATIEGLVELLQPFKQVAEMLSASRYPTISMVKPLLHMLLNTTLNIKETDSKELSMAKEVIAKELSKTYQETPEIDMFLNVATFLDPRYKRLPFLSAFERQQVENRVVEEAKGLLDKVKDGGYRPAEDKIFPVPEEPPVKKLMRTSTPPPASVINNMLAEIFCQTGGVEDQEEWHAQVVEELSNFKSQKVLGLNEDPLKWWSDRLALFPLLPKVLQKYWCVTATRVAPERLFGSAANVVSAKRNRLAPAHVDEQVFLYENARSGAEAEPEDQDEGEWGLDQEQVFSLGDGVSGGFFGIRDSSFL
UniProt O95544: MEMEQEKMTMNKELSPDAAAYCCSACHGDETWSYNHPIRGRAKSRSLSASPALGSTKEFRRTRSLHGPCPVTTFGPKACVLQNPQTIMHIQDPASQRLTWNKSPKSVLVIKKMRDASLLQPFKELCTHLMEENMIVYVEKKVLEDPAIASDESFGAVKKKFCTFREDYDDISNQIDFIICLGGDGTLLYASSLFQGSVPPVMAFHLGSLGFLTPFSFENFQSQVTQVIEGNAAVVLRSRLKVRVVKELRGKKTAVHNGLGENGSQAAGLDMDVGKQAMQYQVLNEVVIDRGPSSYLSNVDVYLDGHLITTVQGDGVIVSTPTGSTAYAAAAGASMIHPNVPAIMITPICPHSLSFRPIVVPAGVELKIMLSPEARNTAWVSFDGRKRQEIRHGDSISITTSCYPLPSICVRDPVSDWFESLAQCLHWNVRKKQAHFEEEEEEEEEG
UniProt P00441, whole entry, looked up: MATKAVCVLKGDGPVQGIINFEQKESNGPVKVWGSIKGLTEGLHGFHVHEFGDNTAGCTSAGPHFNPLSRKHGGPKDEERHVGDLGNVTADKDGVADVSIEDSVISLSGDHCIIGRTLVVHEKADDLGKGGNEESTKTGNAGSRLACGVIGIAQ
UniProt P04818: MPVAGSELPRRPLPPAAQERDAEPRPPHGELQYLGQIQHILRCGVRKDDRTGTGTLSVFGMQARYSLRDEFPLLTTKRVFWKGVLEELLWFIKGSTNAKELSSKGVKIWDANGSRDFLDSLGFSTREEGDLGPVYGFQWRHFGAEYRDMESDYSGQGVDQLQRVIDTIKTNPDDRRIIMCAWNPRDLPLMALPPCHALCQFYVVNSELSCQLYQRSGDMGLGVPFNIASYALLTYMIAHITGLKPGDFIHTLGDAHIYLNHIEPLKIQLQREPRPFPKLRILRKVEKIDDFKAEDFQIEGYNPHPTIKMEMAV
UniProt O96028: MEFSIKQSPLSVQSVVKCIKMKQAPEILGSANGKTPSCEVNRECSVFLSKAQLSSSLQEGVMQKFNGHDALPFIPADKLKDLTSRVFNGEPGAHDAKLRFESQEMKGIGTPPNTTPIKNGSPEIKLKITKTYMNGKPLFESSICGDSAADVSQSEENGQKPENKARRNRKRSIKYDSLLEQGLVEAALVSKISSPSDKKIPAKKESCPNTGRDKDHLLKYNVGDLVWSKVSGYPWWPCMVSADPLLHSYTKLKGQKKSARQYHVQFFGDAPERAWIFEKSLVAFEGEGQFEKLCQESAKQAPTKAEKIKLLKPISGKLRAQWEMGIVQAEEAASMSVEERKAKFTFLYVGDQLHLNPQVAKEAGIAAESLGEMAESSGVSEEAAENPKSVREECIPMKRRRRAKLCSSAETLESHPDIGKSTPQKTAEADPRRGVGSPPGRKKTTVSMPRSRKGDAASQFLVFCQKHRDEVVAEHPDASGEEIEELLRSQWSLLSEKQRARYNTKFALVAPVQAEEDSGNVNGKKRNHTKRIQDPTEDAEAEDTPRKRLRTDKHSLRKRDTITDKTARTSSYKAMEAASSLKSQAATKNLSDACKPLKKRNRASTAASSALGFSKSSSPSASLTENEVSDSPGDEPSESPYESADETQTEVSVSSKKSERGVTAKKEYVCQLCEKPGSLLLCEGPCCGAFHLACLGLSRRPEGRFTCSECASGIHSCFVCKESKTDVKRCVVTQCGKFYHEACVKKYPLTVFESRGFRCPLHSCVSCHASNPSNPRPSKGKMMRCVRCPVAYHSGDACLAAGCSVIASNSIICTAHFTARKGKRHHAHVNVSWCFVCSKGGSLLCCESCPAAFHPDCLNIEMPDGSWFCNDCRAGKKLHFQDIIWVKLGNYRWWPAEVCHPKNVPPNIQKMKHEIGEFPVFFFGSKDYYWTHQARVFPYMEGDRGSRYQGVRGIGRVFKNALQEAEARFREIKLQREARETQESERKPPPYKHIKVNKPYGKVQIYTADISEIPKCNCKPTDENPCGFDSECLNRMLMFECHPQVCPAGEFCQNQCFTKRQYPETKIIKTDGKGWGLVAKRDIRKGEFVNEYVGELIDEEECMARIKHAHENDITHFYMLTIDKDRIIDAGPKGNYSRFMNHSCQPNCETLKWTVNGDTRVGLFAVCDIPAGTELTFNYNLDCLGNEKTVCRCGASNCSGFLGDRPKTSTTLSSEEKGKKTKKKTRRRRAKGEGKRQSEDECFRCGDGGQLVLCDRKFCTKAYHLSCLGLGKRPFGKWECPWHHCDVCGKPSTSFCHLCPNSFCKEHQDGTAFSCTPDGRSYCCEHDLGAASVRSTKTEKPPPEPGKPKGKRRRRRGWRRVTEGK
UniProt O95336: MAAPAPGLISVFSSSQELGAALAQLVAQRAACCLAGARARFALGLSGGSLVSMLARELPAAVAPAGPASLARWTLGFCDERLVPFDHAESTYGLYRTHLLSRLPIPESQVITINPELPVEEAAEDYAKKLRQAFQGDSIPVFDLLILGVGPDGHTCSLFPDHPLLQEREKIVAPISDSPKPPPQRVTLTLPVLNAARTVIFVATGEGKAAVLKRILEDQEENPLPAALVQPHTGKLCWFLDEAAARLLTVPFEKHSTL

Target	log2 ratio of iodoacetamide-alkyne labeling
SSB C18 (UniProt P05455)	inactive: -0.00964
SLC25A5 C257 (UniProt P05141)	inactive: 0.0477
HSPA4L C290 (UniProt O95757)	inactive: -0.0864
MBD3 C215 (UniProt O95983)	inactive: 0.519
ZRANB2 C74 (UniProt O95218)	inactive: 0.158
KBTBD11 C257 (UniProt O94819)	inactive: -0.00346
UniProt O94822_C498	inactive: 0.0225
PFN1 C71 (UniProt P07737)	inactive: 0.0488
OAT C150 (UniProt P04181)	inactive: 0.158
LDHB C164 (UniProt P07195)	inactive: 0.401
UniProt P06493_C119	inactive: 0.0639
UniProt O95163_C23	inactive: 0.258
CD2BP2 C234 (UniProt O95400)	inactive: -0.134
MFN2 C482 (UniProt O95140)	inactive: 0.153
HPRT1 C23 (UniProt P00492)	inactive: -0.00153
TK1 C206 (UniProt P04183)	inactive: 0.174
PRPF6 C901 (UniProt O94906)	inactive: 0.0742
HEXB C551 (UniProt P07686)	inactive: 0.259
UniProt O94826_C475	inactive: 0.133

2 entries from above, with bars between the fields:
Target | log2 ratio of iodoacetamide-alkyne labeling
SSB C18 (UniProt P05455) | inactive: -0.00964
SLC25A5 C257 (UniProt P05141) | inactive: 0.0477

Going on with the list.

Target	log2 ratio of iodoacetamide-alkyne labeling
PCCA C155 (UniProt P05165)	inactive: 0.219
PRPF6 C558 (UniProt O94906)	inactive: 0.13
NPM1 C104 (UniProt P06748)	inactive: 0.07
GLUD1 C327 (UniProt P00367)	inactive: 0.226
RPLP0 C27 (UniProt P05388)	inactive: 0.328
ZBED1 C76 (UniProt O96006)	inactive: 0.264
NADK C79 (UniProt O95544)	inactive: -0.134
UROD C308 (UniProt P06132)	inactive: 0.124
PCNT C563 (UniProt O95613)	inactive: -0.114
CNOT4 C175 (UniProt O95628)	inactive: 0.261
PYGL C581 (UniProt P06737)	inactive: 0.12
SOD1 C58 (UniProt P00441)	inactive: -0.0125
TYMS C180 (UniProt P04818)	inactive: 0.00107
UniProt O96028_C1315	inactive: 0.0383
NPM1 C275 (UniProt P06748)	inactive: 0.189
PCNT C2185 (UniProt O95613)	inactive: 0.359
ATP1A1 C428 (UniProt P05023)	inactive: 0.277
PGLS C156 (UniProt O95336)	inactive: 0.226
